Assay results: patent US20090036382A1, “TGF-Beta Modulators and Use Thereof” (Universita' Degli Studi Di Padova, priority 2006, published 2009)
For at least one compound, name, drawing or mass did not settle the structure.

System: TGF-β activated p15 promoter
Assay: p15-lux luciferase reporter in MEF primary cultures from wild type and emilin1 -/- mice
Format: cell-based, mouse
Settings: FIG. 3A, 3B
Source text: MEF primary cultures were transfected with plasmid p15-lux (p15-luciferase) (Li et al., 1995) driving transcription of the luciferase marker gene under control of the p15^INK4B gene promoter. Since the p15 promoter is activated by TGF-β (i.e. p15 is a TGF-β target gene), the presence of the growth factor induces higher luciferase levels, which can be measured with a luminometer.

For Oc1c2ccccc2c2c3c(cccc13)N=N2 [SP600125], the “p15-lux transcriptional response in normal versus emilin1 -/- MEF cells after drug treatment” value was “greatly increases the response in emilin1 −/− cells”.
